Experimental data: PubChem BioAssay AID1224828 (NIAID, 2016)
This is an unselected part of about 17,000 deposited reagents. 762 of all reagents (4.5%) were called active. 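Active calls include both raised and lowered p65 entry, mostly lowered; wells with fewer than 50 cells lack a z-score.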 Raw values are not corrected between plates. The numbers tell different reagents against one gene apart.

Aim: 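Regulators linking TLR4 signalling to p65 nuclear translocation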 (primary screen)
System: mouse RAW264.7 G9 macrophage reporter cells (GFP-p65, Tnf promoter-mCherry)
Knock-down reagent: siRNA pool against mouse genes, 100 nM
Duration: 2 days siRNA transfection, then 40 min LPS before fixation
Challenge: LPS (Salmonella minnesota R595) at 10 ng/ml
Read-out: 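Microscopy ratio of nuclear to perinuclear-ring GFP-p65 signal, scaled to the plate median; gene score is the average of two replicate robust z-scores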
Direction: p65 translocation robust z-score: higher = more nuclear NF-kappaB p65 after LPS than the plate median; nuclear/cytoplasmic p65 ratio: higher = more nuclear NF-kappaB p65
Hit rule: 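Called active when z exceeds 3.3 or falls under -1.56 (median of Tlr4 controls), giving activity score of at least 50; no calls for control wells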
Meaning of the calls: active = hit (p65 shift raised or lowered); inactive = no clear change

gene symbol	reagent no.	p65 translocation robust z-score	nuclear/cytoplasmic p65 ratio, rep 1	nuclear/cytoplasmic p65 ratio, rep 2	low cell count flag	call
Cdx4	1	0.51	1.54	1.44	enough cells to score	inactive
Thbs1	1	0.36	1.53	1.61	enough cells to score	inactive
Trappc12	1	0.06	1.66	1.47	enough cells to score	inactive
Rnft2	1	0.8	1.56	2.13	enough cells to score	inactive
Dele1	1	0.42	1.49	1.54	enough cells to score	inactive
Myb	1	0.63	1.53	1.41	enough cells to score	inactive
Zbtb8os	1	0.38	1.55	1.68	enough cells to score	inactive
Pnkd	1	-1.16	1.43	1.45	enough cells to score	inactive
Efcab12	1	0.08	1.43	1.55	enough cells to score	inactive
Ttc14	1		1.16	1.17	fewer than 50 cells per well; well left out of scoring	inactive
Ptges	1	-0.65	1.41	1.23	enough cells to score	inactive
Drc5	1	-1.82	1.07	1.05	enough cells to score	active
Gpx2	1	1.53	1.63	1.57	enough cells to score	inactive
Or5b102	1	-1.04	1.43	1.3	enough cells to score	inactive
Gdf5	1	0.13	1.43	1.41	enough cells to score	inactive
Chrm1	1	0.4	1.74	1.45	enough cells to score	inactive
Odf1	1	2.9	2.15	1.96	enough cells to score	inactive
Htatsf1	1	-0.81	1.46	1.52	enough cells to score	inactive
Tasor2	1	1.87	1.78	2.16	enough cells to score	inactive
Gdf15	1	-0.53	1.33	1.33	enough cells to score	inactive
Pibf1	1	-0.98	1.49	1.56	enough cells to score	inactive
Slc35b1	1	-0.17	1.37	1.1	enough cells to score	inactive
Mthfs	1	-0.56	1.68	1.52	enough cells to score	inactive
Nav3	1	-1.26	1.16	1.37	enough cells to score	inactive
Vmn1r54	1		0	1.28	fewer than 50 cells per well; well left out of scoring	inactive
Cd79b	1	1.13	1.59	1.52	enough cells to score	inactive
Brix1	1	-0.77	1.32	1.29	enough cells to score	inactive
Or4k15b	1		1.41	1.23	fewer than 50 cells per well; well left out of scoring	inactive
Gpn3	1		1.31	1.6	fewer than 50 cells per well; well left out of scoring	inactive
Tpcn1	1		1.59	1.24	fewer than 50 cells per well; well left out of scoring	inactive
Smc4	1	0.55	1.65	1.62	enough cells to score	inactive
Pmaip1	1	1.24	1.45	1.36	enough cells to score	inactive
Ranbp1	1	-0.76	1.42	1.4	enough cells to score	inactive
Uts2r	1	0.68	1.63	1.66	enough cells to score	inactive
Slain2	1	0.19	1.39	1.38	enough cells to score	inactive
Baiap2l2	1	2.72	1.7	2	enough cells to score	inactive
A830054O04Rik	1	-1.73	1.21	1.23	enough cells to score	active
Slc35e3	1		1.53	1.23	fewer than 50 cells per well; well left out of scoring	inactive
Procr	1	0.06	1.48	1.44	enough cells to score	inactive
Tceanc2	1		1.36	1.25	fewer than 50 cells per well; well left out of scoring	inactive
Tceanc2	2		1.2	1.31	fewer than 50 cells per well; well left out of scoring	inactive
Xpc	1	0.72	1.58	1.64	enough cells to score	inactive
Krtap12-1	1	-2.36	1.17	1.16	enough cells to score	active
4930515G01Rik	1	-1.03	1.14	1.18	enough cells to score	inactive
Gfra3	1	-0.23	1.38	1.36	enough cells to score	inactive
Ppfia1	1	0.31	1.55	1.44	enough cells to score	inactive
Tesmin	1	0.69	1.91	1.69	enough cells to score	inactive
Ftcd	1	-0.06	1.61	1.43	enough cells to score	inactive
Agpat2	1	0.31	1.63	1.7	enough cells to score	inactive
Zfp934	1	0.15	1.43	1.58	enough cells to score	inactive
Nelfa	1	-0.62	1.42	1.51	enough cells to score	inactive
Ms4a13	1	0.83	1.35	1.68	enough cells to score	inactive
Gabrb2	1	0.3	1.34	1.54	enough cells to score	inactive
Gabrb2	2	2.16	1.68	1.86	enough cells to score	inactive
Gm4894	1	-1.32	1.11	1.34	enough cells to score	inactive
Zfp235	1		1.15	0.995	fewer than 50 cells per well; well left out of scoring	inactive
Large1	1	-0.92	1.44	1.18	enough cells to score	inactive
Zfp958	1	-0.01	1.58	1.83	enough cells to score	inactive
Nmrk1	1	-1.95	1.16	1.66	enough cells to score	active
Chd3	1	-0.61	1.5	1.69	enough cells to score	inactive
Spc25	1	0.58	1.71	1.69	enough cells to score	inactive
Ptma	1	-0.72	1.37	1.34	enough cells to score	inactive
Fbxl5	1	1.14	1.59	1.54	enough cells to score	inactive
Naa10	1	-1.14	1.31	1.48	enough cells to score	inactive
Rps13	1	-1.08	1.19	1.1	enough cells to score	inactive
Chst15	1		1.17	1.3	fewer than 50 cells per well; well left out of scoring	inactive
Eya4	1	-0.43	1.49	1.24	enough cells to score	inactive
Smyd1	1		1.52	1.14	fewer than 50 cells per well; well left out of scoring	inactive
Tmem150a	1	0.11	1.58	1.88	enough cells to score	inactive
Vmn1r33	1		1.42	1.3	fewer than 50 cells per well; well left out of scoring	inactive
Tasp1	1		1.21	1.39	fewer than 50 cells per well; well left out of scoring	inactive
Fbxo42	1	1.42	1.57	1.8	enough cells to score	inactive
Or8s5	1	1.37	1.71	1.6	enough cells to score	inactive
Metap1	1	-0.59	1.31	1.32	enough cells to score	inactive
Fam120b	1		1.45	1.06	fewer than 50 cells per well; well left out of scoring	inactive

Taken from above.
Value for Tceanc2 #1 in “low cell count flag”: fewer than 50 cells per well; well left out of scoring
Chd3, low cell count flag = enough cells to score
Result for Ppfia1 in “nuclear/cytoplasmic p65 ratio, rep 1”: 1.55
Under “call”, Tasor2 has inactive
Under “nuclear/cytoplasmic p65 ratio, rep 2”, Naa10 is entered as 1.48
Entry for Metap1 in “nuclear/cytoplasmic p65 ratio, rep 1”: 1.31
